Experimental findings from paper doi:10.64898/2025.12.22.696046 are described below.

Amino acid sequences for entries named in this document (tags omitted). Residues count along the entry.
UniProt P31554, residues 25-784: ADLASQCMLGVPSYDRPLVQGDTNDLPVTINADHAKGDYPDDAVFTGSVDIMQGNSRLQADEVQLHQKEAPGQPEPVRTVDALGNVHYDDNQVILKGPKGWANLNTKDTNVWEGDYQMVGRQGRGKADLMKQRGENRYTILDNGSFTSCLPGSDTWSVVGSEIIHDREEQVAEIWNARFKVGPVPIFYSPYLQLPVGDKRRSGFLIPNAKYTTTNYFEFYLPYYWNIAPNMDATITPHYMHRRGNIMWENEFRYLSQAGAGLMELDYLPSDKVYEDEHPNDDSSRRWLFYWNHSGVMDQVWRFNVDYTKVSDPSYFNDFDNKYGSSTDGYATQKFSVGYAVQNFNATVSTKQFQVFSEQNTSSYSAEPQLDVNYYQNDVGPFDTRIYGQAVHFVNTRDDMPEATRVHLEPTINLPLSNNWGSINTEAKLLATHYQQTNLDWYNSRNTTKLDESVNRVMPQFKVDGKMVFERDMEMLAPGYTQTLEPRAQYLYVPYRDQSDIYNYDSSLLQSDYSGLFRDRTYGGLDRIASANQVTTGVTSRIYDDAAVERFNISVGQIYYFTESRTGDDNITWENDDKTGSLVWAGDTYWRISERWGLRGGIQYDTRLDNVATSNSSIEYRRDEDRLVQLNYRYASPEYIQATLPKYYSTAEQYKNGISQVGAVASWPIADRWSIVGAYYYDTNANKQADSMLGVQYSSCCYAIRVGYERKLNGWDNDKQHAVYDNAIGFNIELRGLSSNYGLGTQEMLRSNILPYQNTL

To fix the notation:
B1: OmpC (protein, UniProt P06996 22-367)
chain: AEVYNKDGNKLDLYGKVDGLHYFSDNKDVDGDQTYMRLGFKGETQVTDQLTGYGQWEYQIQGNSAENENNSWTRVAFAGLKFQDVGSFDYGRNYGVVYDVTSWTDVLPEFGGDTYGSDNFMQQRGNGFATYRNTDFFGLVDGLNFAVQYQGKNGNPSGEGFTSGVTNNGRDALRQNGDGVGGSITYDYEGFGIGGAISSSKRTDAQNTAAYIGNGDRAETYTGGLKYDANNIYLAAQYTQTYNATRVGSLGWANKAQNFEAVAQYQFDFGLRPSLAYLQSKGKNLGRGYDDEDILKYVDVGATYYFNKNMSTYVDYKINLLDDNQFTRDAGINTDNIVALGLVYQF
B2: OmpF (protein, UniProt P02931 23-362)
chain: AEIYNKDGNKVDLYGKAVGLHYFSKGNGENSYGGNGDMTYARLGFKGETQINSDLTGYGQWEYNFQGNNSEGADAQTGNKTRLAFAGLKYADVGSFDYGRNYGVVYDALGYTDMLPEFGGDTAYSDDFFVGRVGGVATYRNSNFFGLVDGLNFAVQYLGKNERDTARRSNGDGVGGSISYEYEGFGIVGAYGAADRTNLQEAQPLGNGKKAEQWATGLKYDANNIYLAANYGETRNATPITNKFTNTSGFANKTQDVLLVAQYQFDFGLRPSIAYTKSKAKDVEGIGDVDLVNYFEVGATYYFNKNMSTYVDYIINQIDSDNKLGVGSDDTVAVGIVYQF
B3: OmpA (protein, UniProt P0A910 22-346)
chain: APKDNTWYTGAKLGWSQYHDTGFINNNGPTHENQLGAGAFGGYQVNPYVGFEMGYDWLGRMPYKGSVENGAYKAQGVQLTAKLGYPITDDLDIYTRLGGMVWRADTKSNVYGKNHDTGVSPVFAGGVEYAITPEIATRLEYQWTNNIGDAHTIGTRPDNGMLSLGVSYRFGQGEAAPVVAPAPAPAPEVQTKHFTLKSDVLFNFNKATLKPEGQAALDQLYSQLSNLDPKDGSVVVLGYTDRIGSDAYNQGLSERRAQSVVDYLISKGIPADKISARGMGESNPVTGNTCDNVKQRAALIDCLAPDRRVEIEVKGIKDVVTQPQA

These are yes or no findings as the source states them, for the method shown. In cells and extracts the contact can be indirect. Some results given as binding are weak or reduced against the parent protein; the word gives no strength. Tags and fused reporters may be left off the sequences shown.

This assay deals with T1, His×6-tagged YfgH (E. coli) (UniProt P65290).
T1 sequence: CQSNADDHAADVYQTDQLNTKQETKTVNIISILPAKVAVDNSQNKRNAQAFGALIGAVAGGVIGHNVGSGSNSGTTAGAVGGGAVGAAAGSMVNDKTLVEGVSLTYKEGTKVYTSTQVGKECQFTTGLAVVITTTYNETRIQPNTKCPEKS
The assay can be described thus: pull-down.
On to LptD (from UniProt P31554 25-784), for which the binding entry is listed as “binds”. Consider B1, for which the binding entry was “binds”. With B2, the binding entry is listed as “binds”.

Take B3: the binding entry is “binds”.
